This assay addresses β-glucuronidase fused to the N-terminus of SCFP3A (pN:GUS) (UniProt P05804). As to the kind of experiment: split reporter.

Sequences of proteins named here, by UniProt entry; tags and fusion partners are left off.
UniProt P05804: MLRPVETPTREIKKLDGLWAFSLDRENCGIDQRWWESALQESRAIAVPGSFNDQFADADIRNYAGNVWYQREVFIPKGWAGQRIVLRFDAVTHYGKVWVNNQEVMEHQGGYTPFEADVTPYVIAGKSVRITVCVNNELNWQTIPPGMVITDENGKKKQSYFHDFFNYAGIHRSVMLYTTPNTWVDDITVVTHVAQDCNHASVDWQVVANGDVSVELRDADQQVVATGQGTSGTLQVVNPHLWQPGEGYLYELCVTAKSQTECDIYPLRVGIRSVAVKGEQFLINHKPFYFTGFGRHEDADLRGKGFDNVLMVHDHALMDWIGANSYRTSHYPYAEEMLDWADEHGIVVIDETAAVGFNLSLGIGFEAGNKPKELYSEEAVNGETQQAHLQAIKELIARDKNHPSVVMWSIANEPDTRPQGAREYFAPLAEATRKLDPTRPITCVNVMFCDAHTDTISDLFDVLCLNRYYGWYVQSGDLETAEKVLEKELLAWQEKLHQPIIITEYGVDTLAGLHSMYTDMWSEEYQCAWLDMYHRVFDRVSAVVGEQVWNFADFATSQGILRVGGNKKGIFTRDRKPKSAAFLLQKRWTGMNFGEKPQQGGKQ

No constants are given. Whether binding was seen depends on the method and setting. Binding seen in cells or lysates may run through a third protein. Tags and fused reporters may be left off the sequences shown.

For one molecule, binding results are on record in article doi:10.1101/725697.

B1: AtSIZ1 fused to SCFP3A amino acids 156-239 (pC:AtSIZ1) (enzyme, UniProt Q680Q4 1-884)
chain: MDLEANCKEKLSYFRIKELKDVLTQLGLSKQGKKQELVDRILTLLSDEQAARLLSKKNTVAKEAVAKLVDDTYRKMQVSGASDLASKGQVSSDTSNLKVKGEPEDPFQPEIKVRCVCGNSLETDSMIQCEDPRCHVWQHVGCVILPDKPMDGNPPLPESFYCEICRLTRADPFWVTVAHPLSPVRLTATTIPNDGASTMQSVERTFQITRADKDLLAKPEYDVQAWCMLLNDKVLFRMQWPQYADLQVNGVPVRAINRPGGQLLGVNGRDDGPIITSCIRDGVNRISLSGGDVRIFCFGVRLVKRRTLQQVLNLIPEEGKGETFEDALARVRRCIGGGGGDDNADSDSDIEVVADFFGVNLRCPMSGSRIKVAGRFLPCVHMGCFDLDVFVELNQRSRKWQCPICLKNYSVEHVIVDPYFNRITSKMKHCDEEVTEIEVKPDGSWRVKFKRESERRELGELSQWHAPDGSLCPSAVDIKRKMEMLPVKQEGYSDGPAPLKLGIRKNRNGIWEVSKPNTNGLSSSNRQEKVGYQEKNIIPMSSSATGSGRDGDDASVNQDAIGTFDFVANGMELDSISMNVDSGYNFPDRNQSGEGGNNEVIVLSDSDDENDLVITPGPAYSGCQTDGGLTFPLNPPGIINSYNEDPHSIAGGSSGLGLFNDDDEFDTPLWSFPSETPEAPGFQLFRSDADVSGGLVGLHHHSPLNCSPEINGGYTMAPETSMASVPVVPGSTGRSEANDGLVDNPLAFGRDDPSLQIFLPTKPDASAQSGFKNQADMSNGLRSEDWISLRLGDSASGNHGDPATTNGINSSHQMSTREGSMDTTTETASLLLGMNDSRQDKAKKQRSDNPFSFPRQKRSNNEQDHQTRHRSLNKICIILCAGKN
In the case of B1, the binding result is on record as “no binding”.
